Inconclusive results, whose numbers are uncertain, are shown with a selection of clear calls. A potency beside an inconclusive call is a rough fit, not a confirmed value. Activity calls are given as the source filed them. The call rests on the fitted dose curve; in most records, active means well fitted cell-killing curve with a large enough effect; inconclusive means small, poorly fitted or top-dose-only effect, or effect the other way; inactive means no such curve, though single readings can be large or run the other way.
Assay: Quantitative High-Throughput drug screen in 47 multiple myeloma cell lines against the NCATS MIPE library collection: MMM1_PLB cell viability assay (AID 1918976); further: nearly all actives have a fitted effect of over 35% in size
Settings: MMM1 myeloma cells viability, CellTiter-Glo, 48 h; series mostly up to 45.8 µM; viability (% of control): at the top concentration
From the text: PI: Beverly A. Mock Ph.D.
Laboratory of Cancer Biology and Genetics,
Center for Cancer Research, National Cancer Institute,
National Institute of Health, Bethesda, Maryland
Drug resistance and disease progression are common in multiple myeloma (MM) patients, underscoring the need for new therapeutic combinations. […] We hypothesized that effective combinations would reduce MYC expression and enhance p16 activity. […] These preclinical data identify potentially useful drug combinations for evaluation in drug-resistant MM and reveal potential mechanisms of combined drug sensitivity.
Described herein is the primary MIPE qHTS used to cherrypick compounds. Validated compounds were then further tested for potential synergistic activiy.
[1] Peat TJ, Gaikwad SM, Dubois W, Gyabaah-Kessie N, Zhang S, Gorjifard S, Phyo Z, Andres M, Hughitt VK, Simpson RM, Miller MA, Girvin AT, Taylor A, Williams D, D'Antonio N, Zhang Y, Rajagopalan A, Flietner E, Wilson K, Zhang X, Shinn P, Klumpp-Thomas C, McKnight C, Itkin Z, Chen L, Kazandijian D, Zhang J, Michalowski AM, Simmons JK, Keats J, Thomas CJ, Mock BA. Drug combinations identified by high-throughput screening promote cell cycle transition and upregulate Smad pathways in myeloma. Cancer Lett. 2023 Aug 1;568:216284. doi: 10.1016/j.canlet.2023.216284. Epub 2023 Jun 24. PMID: 37356470; PMCID: PMC10408729.
SEQUENCE No. (e.g., 1, 2, 3, etc.); […] (e.g., Cells, Incubation, Reagent, etc.); VALUE and DESCRIPTION.
1; Cells; 5 uL; white, solid bottom 1536-well Greiner assay plate.
2; Compounds; 23 nL; Kalypsis pin tool (Wako USA) equipped with a 1536-well pin head to transfer to the assay plates.
3; Incubation; 48 hours; 37C incubation.
4; Reagent;5uL; CellTiter Glo (Promega).
5; Detector; 425V; Luminescence; Viewlux PerkinElmer.
NOTES (numbers refer to Sequence numbers above)
1. The cell-based screening methods employed in this study were like those previously published. Briefly, the corresponding myeloma cell lines were screened in 1,536-well plates with 500 cells, 5-uL per well for inhibition of cell viability (assessed by measuring ATP levels with CellTiterGlo).
2. NCATS MIPE 4.0 library of approved and investigational drugs were added using the Kalypsis pin tool. Wells treated with DMSO only for 100% viability and media only for 0% viability were used as controls.
3. The assay plates were covered and incubated for 48 hours in a 37C, 5% CO2 incubator with controlled humidity.
4. After 48 hours, CellTilter-GloTM luminescent substrate mix (Promega) reagent was added to the assay plate and plates we incubated for 5 min at room temperature.
5. Signal was measured as median relative luminescence units on a ViewLux (PerkinElmer) multiplate reader.
[1] Heske CM, Davis MI, Baumgart JT, Wilson K, Gormally MV, Chen L, Zhang X, Ceribelli M, Duveau DY, Guha R, Ferrer M, Arnaldez FI, Ji J, Tran HL, Zhang Y, Mendoza A, Helman LJ, Thomas CJ. Matrix Screen Identifies Synergistic Combination of PARP Inhibitors and Nicotinamide Phosphoribosyltransferase (NAMPT) Inhibitors in Ewing Sarcoma. Clin Cancer Res. 2017 Dec 1;23(23):7301-7311. doi: 10.1158/1078-0432.CCR-17-1121. Epub 2017 Sep 12. PMID: 28899971; PMCID: PMC6636827.
Potency means the concentration at half of the fitted maximal effect.

Row | SMILES | Potency | viability (% of control)
1 | O=C(Nc1cc2cc[nH]c2cn1)c1ccccc1 | inconclusive: 8330 nM [cytotoxic, partial curve, poor fit] | –
2 | COc1ccc(-c2oc3cc(OC)ccc3c2C(=O)c2ccc(C#N)cc2)cc1 | inconclusive: 37.2 nM [rising, full curve, poor fit] | –
3 | COc1ccc(-c2coc3cc(O)ccc3c2=O)cc1 | inconclusive: 2350 nM [cytotoxic, partial curve, poor fit] | –
4 | O=C(O)c1ccccc1C(=O)Nc1ccc(-c2ccccc2)cc1 | inconclusive: 10500 nM [cytotoxic, full curve, poor fit] | –
5 | NC(CO)(CO)CCc1ccc(Sc2cccc(OCc3ccccc3)c2)cc1Cl | active: 23500 nM | –
6 | Cc1csc(NC(=O)c2sc3nc4c(c(C(F)(F)F)c3c2N)CCC4)n1 | – | inactive: 101%
7 | Cc1cc2c(s1)Nc1ccccc1N=C2N1CCN(C)CC1 | inconclusive: 4.2 nM [rising, full curve, poor fit] | –
8 | COC(=O)C1=C(C)NC(C)=C(C(=O)OCCN2CCN(C(c3ccccc3)c3ccccc3)CC2)C1c1cccc([N+](=O)[O-])c1 (stereo not given) | – | inactive: 104%
9 | CC1(C)CC(O)CC(C)(C)N1[O] | inconclusive: 59 nM [rising, full curve] | –
10 | CN(C1CCc2c(c3ccccc3n2CC(=O)O)C1)S(=O)(=O)c1ccc(F)cc1 (stereo not given) | inconclusive: 6620 nM [cytotoxic, partial curve, poor fit] | –
11 | C=CC(=O)Nc1cccc(Sc2nc(Nc3ccc(N4CCN(C)CC4)cc3)ncc2Cl)c1 | inconclusive: 37200 nM [cytotoxic, single point] | –
12 | O=C1NC(=O)C(=Cc2ccc(-c3ccc(F)cc3O)o2)S1 | active: 2960 nM | –
13 | O=C1NC(=O)C(c2ccccc2[N+](=O)[O-])=C1Nc1ccc(O)c(Cl)c1 | inconclusive: 2350 nM [rising, partial curve, poor fit] | –
14 | N#CC(=C(N)Sc1ccccc1N)C(C#N)=C(N)Sc1ccccc1N | inconclusive: 16600 nM [cytotoxic, partial curve, poor fit] | –
15 | CS(=O)c1ccc(-c2nc(-c3ccc(F)cc3)c(-c3ccncc3)[nH]2)cc1 (stereo not given) | inconclusive: 13600 nM [cytotoxic, partial curve, poor fit] | –
16 | O=S(=O)(O)CCSSCCS(=O)(=O)O | inconclusive: 1 nM | –
17 | CC(C)[C@H](CO)Nc1nc(Nc2ccc(C(=O)O)c(Cl)c2)c2ncn(C(C)C)c2n1 | active: 23500 nM | –
18 | Cc1oncc1C(=O)Nc1ccc(C(F)(F)F)cc1 | inconclusive: 8330 nM [cytotoxic, partial curve, poor fit] | –
19 | O=c1c(-c2ccc(O)cc2)coc2cc(O[C@@H]3O[C@H](CO)[C@H](O)[C@H](O)[C@H]3O)ccc12 | inconclusive: 8.3 nM [rising, full curve, poor fit] | –
20 | Cc1cc(C(C)(C)C)c(O)c(C)c1CC1=NCCN1 | inconclusive: 2.6 nM [rising, full curve, poor fit] | –

Arranged by count of non-hydrogen atoms (descending): 3 of the compounds above
Row | SMILES | Potency | viability (% of control)
17 | CC(C)[C@H](CO)Nc1nc(Nc2ccc(C(=O)O)c(Cl)c2)c2ncn(C(C)C)c2n1 | active: 23500 nM | –
10 | CN(C1CCc2c(c3ccccc3n2CC(=O)O)C1)S(=O)(=O)c1ccc(F)cc1 (stereo not given) | inconclusive: 6620 nM [cytotoxic, partial curve, poor fit] | –
1 | O=C(Nc1cc2cc[nH]c2cn1)c1ccccc1 | inconclusive: 8330 nM [cytotoxic, partial curve, poor fit] | –

Going on with the list.

Row | SMILES | Potency | viability (% of control)
21 | CC(=O)Nc1ccc([C@H](C)C(=O)Nc2ncc(C(C)C)s2)cc1 | active: 6620 nM | –
22 | Cc1cccc(Nc2nc(-c3ccncc3)cs2)c1 | inconclusive: 33200 nM [cytotoxic, single point] | –
23 | CC(C)(C(=O)NCC(F)(F)C(F)(F)F)C(=O)N[C@@H]1C(=O)Nc2ccccc2-c2ccccc21 | inconclusive: 1050 nM [rising, partial curve, poor fit] | –
24 | CC1(C)NC(=O)N(c2ccc([N+](=O)[O-])c(C(F)(F)F)c2)C1=O | inconclusive: 14800 nM [cytotoxic, partial curve, poor fit] | –
25 | CCC(CC)[C@H](NC(C)=O)[C@@H]1[C@H](O)[C@@H](C(=O)O)C[C@@H]1N=C(N)N | inconclusive: 4.7 nM [rising, full curve, poor fit] | –
26 | CCCc1nc2c(C)cc(-c3nc4ccccc4n3C)cc2n1Cc1ccc(-c2ccccc2C(=O)O)cc1 | inconclusive: 1.9 nM [rising, full curve, poor fit] | –
27 | O=c1cc(N2CCOCC2)oc2c(-c3ccccc3)cccc12 | active: 18700 nM | –
28 | Cc1cnc(Nc2ccc(OCCN3CCCC3)cc2)nc1Nc1cccc(S(=O)(=O)NC(C)(C)C)c1 | inconclusive: 1.5 nM [rising, full curve, poor fit] | –
29 | Cc1ccc(C)c(OCCCC(C)(C)C(=O)O)c1 | inconclusive: 5.9 nM [rising, full curve] | –
30 | CC(C)Cc1ccc(C(C)C(=O)O)cc1 (stereo not given) | inconclusive: 3.6 nM [rising, full curve] | –
31 | O=C1C[C@@H](c2ccc(O)cc2)Oc2cc(O)cc(O)c21 | active: 1480 nM | –
32 | NC(=O)c1ccc(-c2nc(-c3ccc4c(c3)OCCO4)c(-c3ccccn3)[nH]2)cc1 | inconclusive: 3720 nM [cytotoxic, full curve, poor fit] | –
33 | CC(C)c1ccc2c(c1)c(SC(C)(C)C)c(CC(C)(C)C(=O)O)n2Cc1ccc(Cl)cc1 | active: 2640 nM | –
34 | O=c1c(O)c(-c2ccc(O)cc2)oc2cc(O)cc(O)c12 | inconclusive: 132 nM [rising, full curve, poor fit] | –
35 | C[N+]1(C)[C@@H]2C[C@@H](OC(=O)C(O)(c3cccs3)c3cccs3)C[C@H]1[C@@H]1O[C@@H]12 | inconclusive: 29.6 nM [rising, full curve] | –
36 | CNCc1ccc(-c2[nH]c3cc(F)cc4c3c2CCNC4=O)cc1 | inconclusive: 4.7 nM [rising, full curve] | –
37 | CC[N+](CC)(CC)CCOc1cccc(OCC[N+](CC)(CC)CC)c1OCC[N+](CC)(CC)CC | inconclusive: 118 nM [cytotoxic, partial curve, poor fit] | –
38 | Cc1cn([C@@H]2O[C@H](CO)[C@@H](O)[C@H]2F)c(=O)[nH]c1=O | inconclusive: 4.7 nM [rising, full curve, poor fit] | –
39 | CC(=Cc1ccccc1)C=C1SC(=S)N(CC(=O)O)C1=O | inconclusive: 2960 nM [cytotoxic, partial curve, poor fit] | –
40 | O=c1cc(-c2ccccc2)oc2cc(O)cc(O)c12 | inconclusive: 8.3 nM [rising, full curve, poor fit] | –

Source: PubChem BioAssay (NCATS)
